Results from patent US20170128467A1, “ANTIMICROBIAL PHARMACEUTICAL COMPOSITIONS WITH MULTIPLE DRUG RESISTANCE INHIBITING PROPERTIES” (priority 2014, published 2017).
For at least one compound, name, drawing or mass did not settle the structure. Some compounds share one wording; it may come from a single statement.

The chains behind the UniProt entries cited, without tags or fusion partners. Where a name states a change or a piece, a line headed by the entry shows the natural chain unless it says otherwise.
UniProt P33302: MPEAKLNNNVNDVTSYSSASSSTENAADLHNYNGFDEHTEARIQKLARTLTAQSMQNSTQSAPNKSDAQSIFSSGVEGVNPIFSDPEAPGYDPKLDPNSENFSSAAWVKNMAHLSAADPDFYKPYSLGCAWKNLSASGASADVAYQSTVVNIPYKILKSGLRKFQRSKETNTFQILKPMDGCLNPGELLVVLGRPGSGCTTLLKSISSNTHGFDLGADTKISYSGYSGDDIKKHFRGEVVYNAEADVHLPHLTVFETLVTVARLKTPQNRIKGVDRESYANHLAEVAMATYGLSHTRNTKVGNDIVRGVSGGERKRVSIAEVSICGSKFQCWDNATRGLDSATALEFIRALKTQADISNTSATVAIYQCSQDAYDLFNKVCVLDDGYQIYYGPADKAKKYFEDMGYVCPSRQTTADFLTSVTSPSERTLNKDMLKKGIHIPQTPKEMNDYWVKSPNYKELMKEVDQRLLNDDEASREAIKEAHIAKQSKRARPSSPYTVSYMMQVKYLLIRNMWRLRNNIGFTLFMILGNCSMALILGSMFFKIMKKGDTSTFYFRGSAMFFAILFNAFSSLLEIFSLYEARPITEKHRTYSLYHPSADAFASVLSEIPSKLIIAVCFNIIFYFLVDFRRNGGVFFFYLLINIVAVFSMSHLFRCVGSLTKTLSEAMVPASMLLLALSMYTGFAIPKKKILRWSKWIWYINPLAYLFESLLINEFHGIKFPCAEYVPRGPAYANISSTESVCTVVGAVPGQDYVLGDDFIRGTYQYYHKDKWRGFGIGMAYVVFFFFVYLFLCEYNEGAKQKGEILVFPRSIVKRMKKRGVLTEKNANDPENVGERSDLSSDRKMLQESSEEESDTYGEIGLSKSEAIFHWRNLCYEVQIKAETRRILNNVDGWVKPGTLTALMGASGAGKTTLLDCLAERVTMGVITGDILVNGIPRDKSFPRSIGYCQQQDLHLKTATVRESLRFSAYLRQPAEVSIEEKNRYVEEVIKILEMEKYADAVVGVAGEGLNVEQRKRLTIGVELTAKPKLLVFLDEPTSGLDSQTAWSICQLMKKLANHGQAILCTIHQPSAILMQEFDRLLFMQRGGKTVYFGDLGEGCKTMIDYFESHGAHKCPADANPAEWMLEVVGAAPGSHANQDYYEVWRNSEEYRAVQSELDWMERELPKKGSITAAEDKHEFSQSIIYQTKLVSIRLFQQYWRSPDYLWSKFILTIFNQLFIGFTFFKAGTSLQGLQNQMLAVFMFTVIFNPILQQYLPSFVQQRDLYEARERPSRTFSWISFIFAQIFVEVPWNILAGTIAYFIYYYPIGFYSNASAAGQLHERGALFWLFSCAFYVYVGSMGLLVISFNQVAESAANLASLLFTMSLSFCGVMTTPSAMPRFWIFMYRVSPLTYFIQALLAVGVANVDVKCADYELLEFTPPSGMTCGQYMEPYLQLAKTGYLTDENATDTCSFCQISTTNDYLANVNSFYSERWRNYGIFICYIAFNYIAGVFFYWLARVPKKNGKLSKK

What was measured:
ΔTolC (JW5503) = assay: Growth inhibition assay, TolC deletion mutant; assay type: cell-based, Escherichia coli K-12; settings: for antimicrobial activity (growth inhibition): To1C-deletion mutant; for IMPOSSIBILITY OF GROWTH: ΔTolC
Experimental: (§1) Growing in the liquid medium method was selected as the method to test antibacterial activity of SkQ1. Overnight bacterial cells cultures were diluted in fresh LB media. Bacterial cell culture (5×10^6 cells/ml) were inoculated 200 μl into 96-well plates (Eppendorf, Eppendorf AG, Hamburg, Germany) and SkQ1 or CnTPP were added to reach various final concentrations in the range from 0.5 to 200 μM. Cells were left to grow for 21 hours at 37° C. Optical density at 600 nm was measured using an AnthosZenyth 3100 multimode reader (Anthos Labtec, Austria) during incubation.
(§2) In this experiment we have tested whether To1C-dependent transporter is responsible for resistance of E. coli's cells to SkQ1. In the experiment we used single-gene knockout mutants from Keio collection [Baba T., et al., (2006)]. Construction of Escherichia coli K-12 in-frame, single-gene knockout mutants: the Keio collection. Mol. Syst. Biol. 2, 2006.0008.]. […] We used other knockout mutants of genes encoding proteins of transporters that require To1C for their function. […] In contrast, deletion of genes acrA or acrB dramatically changed the sensitivity of E. coli's cells to SkQ1.
Table 1. Results of growth inhibition assay for deletion mutants of genes encoding To1C-required efflux pumps proteins. Deletion strains JW5503 (devoid of the to1C gene), JW0452 (devoid of the acrA gene), JW0451 (devoid of the acrB gene), JW2454 (devoid of the acrD gene), JW3233 (devoid of the acrE gene), JW3234 (devoid of the acrF gene), JW5338 (devoid of the mdtA gene), JW2060 (devoid of the mdtB gene), JW2061 (devoid of the mdtC gene), JW3481 (devoid of the mdtE gene), and JW3482 (devoid of the mdtF gene) have been described in Baba T., et al., (2006). Construction of Escherichia coli K-12 in-frame, single-gene knockout mutants: the Keio collection. Mol. Syst. Biol. 2, 2006.0008.

Bacillus subtilis cells = assay: Growth inhibition assay in liquid medium, B. subtilis; assay type: cell-based; settings: gram-positive
Experimental: as §1
We selected Ecsherishia coli cells as a Gram-negative model organism and Bacillus subtilis cells as a Gram-positive model organism. SkQ1 was selected as a model compound of formula 1 with antioxidant moiety. To select a proper concentration of a compound of formula 1 we performed growth inhibition assays for several SkQ1 concentrations (see FIGS. 8 A and B). It can be concluded from the results of this experiment that 1 μM SkQ1 is the minimal inhibitory concentration (MIC) for B. subtilis cells.

wild type E. coli cells = settings: cited from earlier work
[1] = target: T1, Pdr5p multidrug efflux pump (Saccharomyces cerevisiae, UniProt P33302); assay: C12R1 efflux fluorometric assay in yeast cells; assay type: cell-based; settings: 10 μM C12TPP
T1 construct: endogenous in cells; host or cells: S. cerevisiae PGAL-PDR5 [W303-1A HIS3::PGAL-PDR5] grown on galactose (overexpression); W303-1A WT as control

yeast cells [2] = assay: Growth rate of yeast cells with Pdr5 substrates plus C12TPP; assay type: cell-based, Saccharomyces cerevisiae
ΔAcrA (JW0452) = assay: Growth inhibition assay, AcrA deletion mutant; assay type: cell-based, Escherichia coli K-12
Experimental: as §1, §2
(§3) Table 1. Results of growth inhibition assay for deletion mutants of genes encoding To1C-required efflux pumps proteins. […]

ΔAcrB (JW0451) = assay: Growth inhibition assay, AcrB deletion mutant; assay type: cell-based, Escherichia coli K-12
Experimental: as §1, §2, §3

[3] = target: T2, MDR pumps (Pdr5p) of yeast cells (Saccharomyces cerevisiae, UniProt P33302); assay type: cell-based; settings: 2 μM compound; cells pretreated with 10 mM NaN3
T2 construct: We measured the efflux of R6G from intact yeast cells using fluorometric method; endogenous in cells; host or cells: S. cerevisiae W303-1A (WT); AD1-8 as MDR-negative control
Experimental: The ordinate corresponds to the ratio of slopes in a and b.
To measure the relative rate of rhodamine 6G efflux we used fluorometric assay implemented by Kolaczkowsky et al., with few modifications. Cells were grown overnight in 40 ml in liquid YPD to density of 0.5-1*10^7 cells/ml, washed twice with cold sterile water and resuspended in 10 ml phosphate buffer saline supplemented with 5 mM 2-deoxyglucose and 2.5 mM 2,4-dinitrophenol. Cell suspension was incubated for 45 minutes on a rotatory shaker, then the inhibitors were removed by two cycles of centrifugation/resuspension in cold water. The energy deprived cells were resuspended in 10 ml of PBS and then stained with R6G (10 μM) for 30 minutes. Then cell suspension was pelleted, resuspended in equal volume of PBS and stored on ice for 1-5 hours. The measurements of efflux were performed with FluoroMax-3 fluorometer system with exication wavelength set to 480 nm, and emission wavelength set to 560 nm. The R6G efflux was initiated by addition of 0.1% glucose, cell density in fluorometric cuvette was 10^6 cells/ml.

yeast cells [4] = assay type: cell-based, Saccharomyces cerevisiae; settings: 500 nM R6G; low concentrations of compound
[5] = test system: S. cerevisiae W303-1A and PGAL-PDR5, PGAL-SNQ2, PGAL-YOR1 strains; assay: Survival assay (CFU) of yeast treated with C12TPP or SkQ1; assay type: cell-based, Saccharomyces cerevisiae; settings: 3 hours treatment
Source text: FIG. 1A show the chemical structure of dodecyltriphenylphosphonium C12TPP and its plastoquinone derivative (SkQ1) used in this study.
In this example, we used W303-1A S. cerevisiae strains and its derivatives: AD1-8 with deletions of eight MDR genes [W303-1A, yor1::hisG, snq2::hisG, pdr5:shisG, pdr10::hisG, pdr11::hisG, ycf1::hisG, pdr3::hisG, pdr15::hisG][4]□, PGAL-PDR5 [W303-1A HIS3::PGAL-PDR5], PGAL-SNQ2 [W303-1A HIS3::PGAL-SNQ2], and […] [W303-1AHIS3::PGAL-YOR1](this study). Cells were grown in YPD medium (2% glucose, 1% bactopeptone, 1% yeast extract), or in YPGal (2% galactose, 1% bactopepton, 1% yeast extract). For genetic screening and maintenance of strains with conditionally expressed genes synthetic drop-out media YNB-Leu or YNB-His were used according to Sherman 2000 [5]. The growth rates were measured by increase of light scattering (λ=550 nm) in liquid yeast culture.
Exponentially grown cells were taken and treated with indicated amounts of C12TPP or SKQ1 for 3 hours. Then cell suspensions were plated on solid YPD medium and incubated for 48 hours, the number of formed colonies were counted. 100% refers to the number of colony forming units (CFU) in yeast suspension at the beginning of experiment.

CCCCCCCCCC[P+](c1ccccc1)(c1ccccc1)c1ccccc1 [C10TPP, decyltriphenylphosphonium]
antimicrobial activity (growth inhibition) (ΔTolC (JW5503)): have antimicrobial activity
antimicrobial activity (growth inhibition) (Bacillus subtilis cells): have antimicrobial activity

CC[n+]1c(-c2ccccc2)c2cc(N)ccc2c2ccc(N)cc21 [ethidium bromide]
resistance to ethidium bromide (MIC for E. coli cells) (wild type E. coli cells): up to 800 μg/ml

CCCC[P+](c1ccccc1)(c1ccccc1)c1ccccc1 [C4TPP, butyltriphenylphosphonium]
antimicrobial activity (growth inhibition) (ΔTolC (JW5503)): have antimicrobial activity

CCCCCCCCCCCC[P+](c1ccccc1)(c1ccccc1)c1ccccc1 [C12TPP, dodecyltriphenylphosphonium]
inhibition of C12R1 efflux from yeast cells [1]: prevents efflux of C12R1
effect on toxicity of amphotorecine B (yeast cells [2]): did not detect any significant stimulation of the toxicity
effect on inhibitory effect of cycloheximide D (growth rate, duplication time) (yeast cells [2]; C12TPP 1 μM, ChD 0.05 μM): significantly enhances the inhibitory effect of ChD
effect on inhibitory effect of clotrimazole (growth) (yeast cells [2]; C12TPP 1 μM, CltrA 60 μM): augments the action of antifungal clotrimazole
IMPOSSIBILITY OF GROWTH (ΔAcrA (JW0452); 5 μM): YES
IMPOSSIBILITY OF GROWTH (ΔAcrA (JW0452); 30 μM): YES
IMPOSSIBILITY OF GROWTH (ΔAcrB (JW0451); 5 μM): YES
IMPOSSIBILITY OF GROWTH (ΔAcrB (JW0451); 30 μM): YES
antimicrobial activity (growth inhibition) (ΔTolC (JW5503)): have antimicrobial activity
IMPOSSIBILITY OF GROWTH (ΔTolC (JW5503); 5 μM): YES
IMPOSSIBILITY OF GROWTH (ΔTolC (JW5503); 30 μM): YES
inhibition of glucose-induced R6G efflux from yeast cells pretreated with NaN3 [3]: inhibits glucose-induced R6G efflux
R6G staining of yeast cells (yeast cells [4]): enhanced by low concentrations
resistance of cells (survival) under overexpression of MDR pump genes ([5]; galactose-grown cells, PGAL overexpression): overexpression of PDR5 provided a moderate protection
resistance of cells (survival) under repression of MDR pump genes ([5]; glucose-grown cells, PGAL repression of PDR5, SNQ2 or YOR1): expression of PDR5 is critical for resistance
antimicrobial activity (growth inhibition) (Bacillus subtilis cells): have antimicrobial activity
